Measured values reported in the supplement of paper PMC6078165.
The reference is the same well before dosing, and untreated signal decays as well.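 Fibroblast labels denote human fibroblasts, mainly primary ones from uterus (C12385, HUF), lung (H6013), bone (Hs27A), adrenal (HADF) and skin (WS1), plus mammary HMF and breast cancer-associated Hs343T. Cancer cells are basal-like or mesenchymal-like triple-negative breast cancer lines. A hit is a response shift exceeding 3x replicate standard deviation. The tissue of the other fibroblasts is not given here.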

Tested on: Hs578T
Test: relative JC-1 red fluorescence (viability) vs pre-drug, coculture with fibroblast (fraction); higher = more viable cancer cells
Description: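 JC-1 labelled TNBC cells cocultured 1:1 (1,500 cells each) with CellTrace Violet stained primary or stromal fibroblasts in 384-well plates in FluoroBrite medium, treated with one of 42 anticancer drugs at 0.1, 1, 10 or 100 uM. JC-1 red fluorescence (mitochondrial integrity in cancer cells only) was read by plate reader every 8 h for 72 h. Values are normalised to each well's pre-drug value. The stock of one drug was tenfold lower, so its dose labels may be too high.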

N.N.[Cl][Pt][Cl] [Cisplatin]
relative JC-1 red fluorescence
Conditions | 8 h | 16 h | 24 h | 32 h | 40 h | 48 h | 56 h | 64 h | 72 h
0.1 µM | 0.886 | 0.8056 | 0.76 | 0.711 | 0.65 | 0.606 | 0.586 | 0.547 | 0.539
1 µM | 0.877 | 0.772 | 0.721 | 0.669 | 0.603 | 0.565 | 0.548 | 0.5088 | 0.5009

relative JC-1 red fluorescence
Conditions | 8 h | 16 h | 24 h | 32 h | 40 h | 48 h | 56 h | 64 h | 72 h
0.1 µM, coculture fibroblast: C12385 | 0.82 | 0.748 | 0.702 | 0.622 | 0.562 | 0.537 | 0.521 | 0.517 | 0.513
0.1 µM, coculture fibroblast: H6013 | 0.87 | 0.82 | 0.777 | 0.761 | 0.737 | 0.727 | 0.71 | 0.704 | 0.685
0.1 µM, coculture fibroblast: H6019 | 0.773 | 0.688 | 0.659 | 0.563 | 0.526 | 0.503 | 0.48 | 0.467 | 0.441
0.1 µM, coculture fibroblast: H6076 | 0.9057 | 0.8383 | 0.795 | 0.769 | 0.723 | 0.717 | 0.698 | 0.692 | 0.691
0.1 µM, coculture fibroblast: H6231 | 0.872 | 0.758 | 0.703 | 0.659 | 0.603 | 0.58 | 0.541 | 0.526 | 0.517
0.1 µM, coculture fibroblast: HADF | 0.884 | 0.83 | 0.771 | 0.7156 | 0.685 | 0.664 | 0.635 | 0.631 | 0.606
0.1 µM, coculture fibroblast: HCFa | 0.861 | 0.802 | 0.739 | 0.691 | 0.641 | 0.619 | 0.589 | 0.572 | 0.536
0.1 µM, coculture fibroblast: HCPF | 0.8904 | 0.827 | 0.7882 | 0.766 | 0.723 | 0.709 | 0.694 | 0.669 | 0.662
0.1 µM, coculture fibroblast: HHSteC | 0.8374 | 0.756 | 0.682 | 0.623 | 0.565 | 0.5375 | 0.5149 | 0.4925 | 0.462
0.1 µM, coculture fibroblast: HMF | 0.9136 | 0.8405 | 0.773 | 0.74 | 0.686 | 0.658 | 0.622 | 0.611 | 0.6
0.1 µM, coculture fibroblast: HPFa | 0.8814 | 0.79459 | 0.727 | 0.6645 | 0.6242 | 0.5906 | 0.5596 | 0.533 | 0.491
0.1 µM, coculture fibroblast: HUF | 0.827 | 0.709 | 0.661 | 0.555 | 0.495 | 0.461 | 0.432 | 0.425 | 0.419
0.1 µM, coculture fibroblast: Hs27A | 0.906 | 0.867 | 0.828 | 0.805 | 0.747 | 0.738 | 0.706 | 0.702 | 0.666
0.1 µM, coculture fibroblast: Hs343T | 0.924 | 0.807 | 0.73 | 0.701 | 0.626 | 0.604 | 0.5637 | 0.545 | 0.545
0.1 µM, coculture fibroblast: WS1 | 0.809 | 0.736 | 0.733 | 0.646 | 0.601 | 0.597 | 0.582 | 0.595 | 0.605
1 µM, coculture fibroblast: C12385 | 0.811 | 0.733 | 0.6958 | 0.6116 | 0.553 | 0.528 | 0.502 | 0.4985 | 0.4987
1 µM, coculture fibroblast: H6013 | 0.8598 | 0.805 | 0.743 | 0.71 | 0.686 | 0.674 | 0.651 | 0.643 | 0.612
1 µM, coculture fibroblast: H6019 | 0.769 | 0.685 | 0.64 | 0.545 | 0.506 | 0.481 | 0.454 | 0.442 | 0.425
1 µM, coculture fibroblast: H6076 | 0.905 | 0.8261 | 0.774 | 0.739 | 0.704 | 0.692 | 0.678 | 0.666 | 0.664
1 µM, coculture fibroblast: H6231 | 0.878 | 0.798 | 0.738 | 0.693 | 0.63 | 0.602 | 0.566 | 0.545 | 0.537
1 µM, coculture fibroblast: HADF | 0.866 | 0.823 | 0.751 | 0.695 | 0.655 | 0.631 | 0.594 | 0.572 | 0.538
1 µM, coculture fibroblast: HCFa | 0.836 | 0.772 | 0.701 | 0.6321 | 0.564 | 0.54 | 0.496 | 0.475 | 0.435
1 µM, coculture fibroblast: HCPF | 0.907 | 0.816 | 0.763 | 0.722 | 0.661 | 0.637 | 0.626 | 0.581 | 0.561
1 µM, coculture fibroblast: HHSteC | 0.8415 | 0.798 | 0.74 | 0.702 | 0.663 | 0.634 | 0.618 | 0.597 | 0.564
1 µM, coculture fibroblast: HMF | 0.866 | 0.792 | 0.736 | 0.687 | 0.629 | 0.588 | 0.561 | 0.526 | 0.504
1 µM, coculture fibroblast: HPFa | 0.8707 | 0.84 | 0.794 | 0.768 | 0.762 | 0.748 | 0.718 | 0.715 | 0.679
1 µM, coculture fibroblast: HUF | 0.848 | 0.744 | 0.723 | 0.625 | 0.573 | 0.538 | 0.503 | 0.4868 | 0.4805
1 µM, coculture fibroblast: Hs27A | 0.869 | 0.843 | 0.814 | 0.763 | 0.725 | 0.713 | 0.673 | 0.665 | 0.623
1 µM, coculture fibroblast: Hs343T | 0.8727 | 0.7796 | 0.7176 | 0.684 | 0.611 | 0.576 | 0.549 | 0.528 | 0.52
1 µM, coculture fibroblast: WS1 | 0.788 | 0.69 | 0.676 | 0.579 | 0.525 | 0.512 | 0.494 | 0.497 | 0.498
